From patent publication US20080280996A1, “Use of Carophyllenes in the Manufacture of Medicaments and Treatment of Bodily Conditions of Inflammation and Inflammatory Pain” (priority 2004, published 2008)
At least one compound was matched to its structure with a doubt left.

Tested on: carrageenin-induced paw oedema
Assay: Carrageenin oedema in mouse paw
Assay type: in vivo
Conditions: mice, carrageenin intraplantar; alpha-humulene 50 mg/kg orally 1 h before; dexamethasone 0.5 mg/kg subcutaneously 4 h before; 30 min to 48 h
Protocol: The test used below is described by Cunha et. al. in the publication Life Sci. 70:159-169, 2001. […] The left paw received the same volume of saline and was taken as a negative control. The swelling was measured with a plethysmometer (manufacturer: Ugo Basile, Italy) along various time intervals after the injection of the phlogistic agent. The difference between the volumes of the right and the left paw were quantified (in ml) and taken as an index of oedema. One hour before the test the animals were systemically treated (orally) with 50 mg/kg of alphahumulene or trans-caryophyllene. Graph 2 below compares the inhibition of the volume of the oedema by administration of either alpha-humulene or trans-caryophyllene with inhibition obtained with the administration of dexamethasone (0.5 mg/kg, injected subcutaneously 4 h before test) and used as positive control. Oedema volume measurement time point intervals were 30, 60, 120 and 240 min, 24 h and 48 h. Each point represents the average of 5 animals, and the vertical bars the mean standard error deviation.

C[C@@H]1C[C@H]2[C@@H]3CCC4=CC(=O)C=C[C@]4(C)[C@@]3(F)[C@@H](O)C[C@]2(C)[C@@]1(O)C(=O)CO [dexamethasone, reference compound]
inflammatory volume (paw oedema volume): reduced the inflammatory volume
